Record: PubChem BioAssay AID1508588 (Peter MacCallum Cancer Centre, 2020)
In all, the deposit lists about 18,000 reagents; this is a random part of them. 790 of them (4.4%) count as active. 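Calls rest on a combination of fold-change classes in drug and vehicle arms, not all shown here.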

Screen: 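Knock-downs boosting vemurafenib effects on melanoma cell growth or lactate release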 (primary screen)
Cell system: human WM266.4 melanoma cells (BRAF V600 mutant)
Knock-down reagent: siRNA pool against human genes, 40 nM
Time to read-out: 96 h from transfection to read-out
Conditions: vemurafenib 300 nM (about IC25), added 48 h after transfection, for 48 h; comparison arm got DMSO vehicle only
Read-out: 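Cell gain (DAPI nuclei at end minus before drug, mean of two replicates) and medium lactate by absorbance per cell, both as ratio to non-targeting siRNA, also grouped into fold-change classes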
Direction: cell gain with vemurafenib: higher = more cell gain than with non-targeting siRNA; lactate per cell with vemurafenib: higher = more lactate made per cell
Rule for the call: 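Enhancement is called by pairing each knock-down's vehicle-arm and drug-arm fold-change classes for viability or glycolysis; which class combinations qualify is not given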
Meaning of the calls: active = enhances vemurafenib effect; inactive = no enhancement seen

gene knocked down | cell gain with vemurafenib | lactate per cell with vemurafenib | outcome
UHRF1 | 0.69 | 0.7 | active
OR51V1 | 0.39 | 1.29 | inactive
ABCC5 | 0.58 | 0.75 | inactive
TMBIM1 | 0.23 | 1.96 | inactive
FAM181B | 1.03 | 0.89 | inactive
PRNP | 0.95 | 0.96 | inactive
HNRNPL | 0.26 | 2.23 | inactive
GOLGA7B | 0.84 | 0.94 | inactive
GLYATL1 | 0.15 | 1.18 | inactive
EPDR1 | 0.8 | 0.77 | inactive
H4C5 | 0.71 | 0.48 | inactive
GIMAP6 | 0.92 | 0.6 | inactive
ARPC4 | 0.73 | 0.47 | active
AJM1 | 0.35 | 1.2 | inactive
SLC22A16 | 0.14 | 1.89 | inactive
SEMA3A | 0.47 | 0.52 | inactive
PABPN1 | 0.65 | 0.5 | inactive
IFNA14 | 0.63 | 0.25 | inactive
CDC37L1 | 0.81 | 0.93 | inactive
NYNRIN | 0.17 | 2.34 | inactive
SLC7A10 | 0.78 | 0.58 | inactive
TTLL13 | 1.04 | 0.84 | inactive
NPDC1 | 0.4 | 1.47 | inactive
SETD6 | 0.61 | 1.71 | inactive
SMARCB1 | -0.02 | 3.86 | inactive
AHCYL2 | 0.47 | 1.04 | inactive
ZNF705A | 0.66 | 0.9 | inactive
AP3B1 | 0.22 | 2.05 | inactive
METTL6 | 0.6 | 1.5 | inactive
PDSS1 | 0.92 | 1.09 | inactive
FOXR2 | 0.42 | 1.62 | inactive
SLC26A11 | 0.59 | 1.36 | inactive
ICAM4 | 0.69 | 0.69 | inactive
SLC26A9 | 0.29 | 2.16 | inactive
AASS | 0.87 | 0.2 | inactive
MXRA7 | 0.27 | 1.5 | inactive
NDUFA13 | 0.59 | 1.57 | inactive
FOXB2 | 0.48 | 0.86 | inactive
TMEM38A | 0.65 | 0.74 | inactive
WDR72 | 0.95 | 0.72 | inactive
APOBEC1 | 0.73 | 0.65 | inactive
OR52R1 | 0.52 | 1.61 | inactive
LRRC10 | 0.65 | 1.44 | inactive
PBXIP1 | 0.75 | 0.72 | inactive
SPESP1 | 0.91 | 0.68 | inactive
PDK3 | 0.53 | 0.16 | active
SYS1 | 0.19 | 0.72 | inactive
GUCA1C | 0.35 | 0.45 | active
PIWIL2 | 0.75 | 1.08 | inactive
MC3R | 0.34 | 0.9 | inactive
TAS2R5 | 1.07 | 0.65 | inactive
HMGB2 | 0.51 | 0.86 | inactive
CNTNAP2 | 0.74 | 0.73 | inactive
PATE1 | 0.52 | 0.88 | inactive
CRYZL1 | 0.67 | 0.58 | inactive
GOPC | 0.9 | 1.19 | inactive

7 successive reagents already listed, for reference:
gene knocked down | cell gain with vemurafenib | lactate per cell with vemurafenib | outcome
NYNRIN | 0.17 | 2.34 | inactive
SLC7A10 | 0.78 | 0.58 | inactive
TTLL13 | 1.04 | 0.84 | inactive
NPDC1 | 0.4 | 1.47 | inactive
SETD6 | 0.61 | 1.71 | inactive
SMARCB1 | -0.02 | 3.86 | inactive
AHCYL2 | 0.47 | 1.04 | inactive

Additional reagents:
gene knocked down | cell gain with vemurafenib | lactate per cell with vemurafenib | outcome
CHST14 | 0.5 | 0.88 | inactive
CALB1 | 0.27 | 1.19 | inactive
CAVIN4 | 0.45 | 1.02 | inactive
GPX4 | 0.62 | 1.05 | inactive
ACBD7 | 0.67 | 0.78 | inactive
RYR1 | 0.54 | 0.84 | inactive
TNS2 | 0.16 | 1.54 | inactive
CYRIA | 0.61 | 0.66 | inactive
KLHDC8A | 0.08 | 2.88 | inactive
VMA12 | 0.49 | 1.04 | inactive
SLC4A10 | 0.65 | 0.46 | inactive
C22orf39 | 0.57 | 0.68 | inactive
FAM219B | 0.53 | 0.96 | inactive
ABLIM1 | 0.57 | 1.03 | inactive
SNAP25 | 0.7 | 0.76 | inactive
SMNDC1 | 0.31 | 1.7 | inactive
PAX3 | 0.76 | 0.62 | inactive
SLC1A6 | 0.3 | 1.31 | inactive
GRIK2 | 0.6 | 1.06 | inactive
CTSF | 1.15 | 0.68 | inactive
FGF10 | 0.72 | 0.52 | inactive
FAM3D | 0.78 | 0.37 | inactive
IL17B | 0.44 | 2.64 | inactive
ZMAT1 | 0.35 | 1.8 | inactive
COX7A1 | 0.81 | 0.85 | inactive
FNDC5 | 0.14 | 2.01 | inactive
TNFSF12 | 0.63 | 0.58 | inactive
LGI1 | 0.13 | 0.4 | active
